Data from PubChem BioAssay AID504847 (National Center for Advancing Translational Sciences (NCATS), 2011).
Several values for one entry are separate records, joined by “and”; a condition that tells them apart may be missing. Identical values can stand only once. The campaign covered roughly 400,000 compounds. About 3,700 (0.93%) were called active. This list was built around the results that the source calls inconclusive (neither active nor inactive); the mix of calls is not that of the screen. Calls follow the shape of the dose curve; as a rule, active = well fitted inhibition curve with a large enough effect; inconclusive = small, poorly fitted or top-dose-only effect, or another doubt; inactive = no such curve, though single readings can be large or run the other way. Potencies of inconclusive entries are doubtful fits and often do not repeat. The source holds several records for some structures; these can differ, active in one and inactive in another.
% is scaled to controls: 0 for no effect and ±100 for the full control effect; potency is read from the fitted curve at half-maximal effect.

The chains behind the UniProt entries cited, without tags or fusion partners.
UniProt P11473, whole entry, looked up: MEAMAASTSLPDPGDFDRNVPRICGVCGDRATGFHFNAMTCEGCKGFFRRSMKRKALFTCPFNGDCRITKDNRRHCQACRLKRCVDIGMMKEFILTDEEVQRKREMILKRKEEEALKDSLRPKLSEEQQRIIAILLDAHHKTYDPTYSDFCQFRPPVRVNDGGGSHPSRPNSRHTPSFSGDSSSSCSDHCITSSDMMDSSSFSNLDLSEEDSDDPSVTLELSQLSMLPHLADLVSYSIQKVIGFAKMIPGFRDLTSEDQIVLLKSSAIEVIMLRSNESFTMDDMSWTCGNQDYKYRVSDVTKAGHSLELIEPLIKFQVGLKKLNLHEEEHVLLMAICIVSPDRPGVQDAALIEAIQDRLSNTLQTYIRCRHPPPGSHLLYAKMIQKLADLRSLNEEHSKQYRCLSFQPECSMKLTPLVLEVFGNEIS

What follows are molecules tested against Vitamin D3 receptor (Homo sapiens) (UniProt P11473) (assay: Inhibitors of the vitamin D receptor (VDR): qHTS). Settings: VDR-SRC2-3 peptide fluorescence polarization, 2 h; max response, negative = inhibition: active compounds read low.
Procedure, shortened: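 After 23 nl compound addition and a short centrifugation, plates sat for 2 hours at ambient temperature; polarization of fluorescence then indicated loss of VDR binding to peptide SRC2-3.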
In the case of `COc1cc2c(cc1O)CCN[C@@]21CS[C@H]2c3c(OC(C)=O)c(C)c4c(c3C(COC1=O)N1C2C2c3c(cc(C)c(OC)c3O)CC([C@@H]1O)N2C)OCO4` (stereo partly specified), the Potency is reported as inconclusive: 31.6 µM [inhibitor, partial curve]. In the case of `O=C(/C=C/c1ccncc1)c1ccc2c(c1)OCCO2`, the Potency is reported as active: 28.2 µM. `O=C(Nc1nc(-c2ccco2)c(-c2ccco2)s1)C1CCC1` was tested, and the Potency was inconclusive: 89.1 µM [inhibitor, single point]. `Cc1cccc(OCC(=O)Nc2ccc3c(c2)nc(CN2CCCCC2)n3C)c1` was tested, and the max response, negative = inhibition was inactive: 13.4% and inactive: 11.7%. `O=C(Cc1ccccc1)NNC(=S)Nc1ccccc1` was tested, and the max response, negative = inhibition was inactive: -3.64%. `COc1ccc(-c2c(C)[nH]n3c(=O)c(Cc4ccccc4)c(C)nc23)cc1OC` was tested, and the max response, negative = inhibition was inactive: 10.4%. With `O=C(CSCc1ccc(C(=O)O)cc1)Nc1ccccc1` the max response, negative = inhibition was inactive: 5.48%. In the case of `Cc1[nH]c2ccccc2c1C1(O)C(=O)N(C(C)C)c2ccccc21` (stereo unspecified), the Potency is reported as inconclusive: 100 µM [inhibitor, single point]. In the case of `Cc1nc(CN2CCCCC2)c(O)c(=O)[nH]1`, the Potency is reported as inconclusive: 89.1 µM [inhibitor, single point]. For `COc1ccc(Cn2c(=O)[nH]c3cc(OC)c(OC)cc3c2=O)cc1`, the Potency was inconclusive: 15.8 µM [inhibitor, partial curve, poor fit]. `O=C(C[C@H]1C[C@H](C(=O)N2CCOCC2)[C@@]2(CCC3CCCC3)c3[nH]c4cc(-c5ccco5)ccc4c3CCN2C1=O)NCc1cccc(C(F)(F)F)c1` was tested, and the Potency was inconclusive: 89.1 µM [inhibitor, single point]. For `COCCNc1ccnc(-c2ccccc2C)n1`, the Potency was inconclusive: 39.8 µM [inhibitor, partial curve]. In the case of `O=C(CNC(=O)c1ccc2c(c1)OCCO2)N/N=C/c1cccc(Br)c1`, the max response, negative = inhibition is reported as inactive: -15.4%. For `Fc1ccccc1-c1ccc(-c2nc3ccc(Cl)cn3c2Nc2ccc(Cl)cc2)o1`, the Potency was inconclusive: 56.2 µM [inhibitor, partial curve, poor fit]. For `Cc1ccc(CNc2ccc(N3C(=O)CC(C)C3=O)cc2[N+](=O)[O-])cc1` (stereo unspecified), the max response, negative = inhibition was inactive: 1.9%. With `CCCCN1CC(=O)N2[C@H]3c4ccccc4OC[C@@H]3[C@H](c3ccccc3)[C@]2(C)C1=O` the Potency was inconclusive: 100 µM [inhibitor, partial curve, poor fit]. In the case of `Cc1ccc2nc(NC(=O)CSc3ncnc4c3oc3ccccc34)sc2c1`, the Potency is reported as inconclusive: 100 µM [inhibitor, partial curve, poor fit]. `Cc1ccc(O)c(N=Cc2cc(Cc3ccccc3)cc([N+](=O)[O-])c2O)c1` was tested, and the max response, negative = inhibition was inactive: -10.2%. With `COc1ccc2c(c1)CCC1C2=NN(/C(C)=C\C(C)=O)C1c1ccc(F)cc1` (stereo unspecified) the Potency was inconclusive: 31.6 µM [inhibitor, partial curve, poor fit]. For `Cc1cc(C)c(C(=O)/C=C/c2cccc3ccccc23)c(=O)[nH]1`, the Potency was inconclusive: 50.1 µM [inhibitor, partial curve, poor fit]. For `Cc1cc(C)c(C)c(S(=O)(=O)N2CCN(c3ncnc4sc(C)c(C)c34)CC2)c1C`, the Potency was inconclusive: 89.1 µM [inhibitor, single point]. `CC1CCN(C2=NN3C(=N)/C(=C\c4ccc(OC(=O)c5ccco5)cc4)C(=O)N=C3S2)CC1` was tested, and the Potency was inconclusive: 56.2 µM [inhibitor, partial curve, poor fit]. For `CCOC(=O)N1CCN(C(=O)CS(=O)(=O)Cc2nc(-c3ccccc3C)oc2C)CC1`, the Potency was inconclusive: 39.8 µM [inhibitor, partial curve, poor fit]. With `COc1ccccc1NS(=O)(=O)c1ccc2c(c1)NC(=O)CC(=O)N2` the max response, negative = inhibition was inactive: 0.226%. In the case of `O=C(COc1cccc2ccccc12)Nc1ccc(Cl)cc1C(=O)O`, the Potency is reported as inconclusive: 89.1 µM [inhibitor, single point]. For `C=Cc1c(C)/c2[n-]/c1=C\c1[n-]c(c(CC)c1C)/C=c1\[n-]c3c(c1C)C(=O)C(C(=O)[O-])C=3c1[n-]c(c(C)c1CCC(=O)[O-])\C=2.[Cu].[Na+].[Na+]` (stereo unspecified), the Potency was active: 31.6 µM. With `N#Cc1c(N)nc(SC2CCCCC2=O)c(C#N)c1-c1ccco1` (stereo unspecified) the max response, negative = inhibition was inactive: 4.4%. With `COC(=O)CSc1nc(C)c(C)c(C)c1C(N)=O` the max response, negative = inhibition was inactive: 4.17%. With `COc1cc(NC(=O)CN2CCN(S(=O)(=O)/C=C/c3ccccc3)CC2)cc(OC)c1OC` the Potency was inconclusive: 89.1 µM [inhibitor, single point]. In the case of `CCOC(=O)c1c(C)oc2c1cc(O)c1ccccc12`, the max response, negative = inhibition is reported as inactive: 6.67%. In the case of `CCCC1=C(C(=O)OCC)C(c2ccc(OC)c(CSc3ccccn3)c2)C(C#N)=C(N)O1` (stereo unspecified), the Potency is reported as inconclusive: 79.4 µM [inhibitor, single point]. `Cc1cnc(NC(=O)COc2ccccc2)s1` was tested, and the max response, negative = inhibition was inactive: -0.753%. For `Cc1cc2cc(CCNC(=O)CCc3ccccc3)c(=O)[nH]c2cc1C`, the Potency was inconclusive: 79.4 µM [inhibitor, partial curve, poor fit]. With `C[N+](C)(C)CCC(=O)c1cccc2ccccc12` the Potency was active: 2 µM. `O=C(O)c1ccc(NC(=O)c2ccco2)c(NC(=O)c2ccco2)c1` was tested, and the Potency was inconclusive: 3.55 µM [inhibitor, partial curve, poor fit]. In the case of `Cc1nnc(NC(=O)CSC2=NN3CCCC(=O)N=C3S2)s1`, the max response, negative = inhibition is reported as inactive: -9.19%. `Cc1ccc(-n2c(-c3c(-c4ccccc4)noc3C)n[nH]c2=S)cc1` was tested, and the max response, negative = inhibition was inactive: -13%. For `COc1cc(NC(=O)CN2CCCN(S(=O)(=O)c3ccc(F)cc3)CC2)cc(OC)c1`, the Potency was inconclusive: 89.1 µM [inhibitor, single point]. With `N#Cc1c(-n2cccc2C=O)sc2c1CCCC2` the Potency was inconclusive: 79.4 µM [inhibitor, single point]. For `CCc1ccc(C(=O)N2CCN(S(=O)(=O)c3sc(C(=O)O)c(C)c3C(=O)O)CC2)cc1`, the Potency was inconclusive: 25.1 µM [inhibitor, partial curve, poor fit]. For `COc1cc(-c2noc(-c3ccc(NC4CCCC4)c([N+](=O)[O-])c3)n2)cc(OC)c1OC`, the max response, negative = inhibition was inactive: 13%. In the case of `COc1ccc(S(=O)(=O)N2CCCC2)c(Cl)c1Cl`, the max response, negative = inhibition is reported as inactive: 14.8%. With `CC(=O)Nc1ccc(S(=O)(=O)Nc2cc([N+](=O)[O-])ccc2C)cc1` the Potency was inconclusive: 35.5 µM [inhibitor, single point]. In the case of `Cc1cccc(N(C)Cc2nnc(-c3cccc(Br)c3)o2)c1`, the Potency is reported as inconclusive: 44.7 µM [inhibitor, single point]. For `[O-]/[N+](=C\c1ccccc1)c1ccc(Br)cc1`, the Potency was active: 25.1 µM. For `CN(C)c1ccc(-c2ccc3ncnc(N(C)Cc4ccco4)c3c2)cc1`, the Potency was inconclusive: 50.1 µM [inhibitor, partial curve]. In the case of `COc1ccccc1CN1CC[C@@]2(CCCN(C(=O)c3cc(C(F)(F)F)cc(C(F)(F)F)c3)C2)C1`, the Potency is reported as inconclusive: 50.1 µM [inhibitor, partial curve, poor fit]. `COc1ccc(C(=O)NC2CCSc3ccccc32)cc1F` (stereo unspecified) was tested, and the Potency was inconclusive: 31.6 µM [inhibitor, partial curve, poor fit]. In the case of `CC(=O)Nc1ccc2nc(SCC(=O)NCCOc3ccccc3)sc2c1`, the Potency is reported as inconclusive: 25.1 µM [inhibitor, partial curve, poor fit]. `Cc1nn(C)c(C)c1S(=O)(=O)N1CCCC(C(=O)NC2CCCCCC2)C1` (stereo unspecified) was tested, and the Potency was inconclusive: 15.8 µM [inhibitor, full curve, poor fit]. `CCOC(=O)c1sc2ccccc2c1NC(=O)c1coc2ccccc2c1=O` was tested, and the max response, negative = inhibition was inactive: 1.77%. For `Cn1cc(SCC(=O)Nc2ccc3c(c2)OCO3)c2ccccc21`, the max response, negative = inhibition was inactive: -16.8%. With `NS(=O)(=O)c1ccc(CCNC(=O)COC(=O)CN2C(=O)C3CCCCC3C2=O)cc1` (stereo unspecified) the Potency was inconclusive: 89.1 µM [inhibitor, single point]. In the case of `O=C(c1ccncc1)N1CCC2(CCCN(c3cccc(-c4ccccc4)c3)C2)CC1`, the Potency is reported as active: 44.7 µM. `O=C(CNC(=S)N(CCCN1CCOCC1)Cc1cccs1)NCCN1CCOCC1` was tested, and the max response, negative = inhibition was inactive: 2.07%. With `COc1ccc(CC(=O)Nc2ccc3nc(SC)sc3c2)cc1OC` the max response, negative = inhibition was inactive: 32.2%. For `COC(=O)c1c(-c2cccs2)csc1NC(=O)c1cc(OC)c(OC)c(OC)c1`, the Potency was inconclusive: 25.1 µM [inhibitor, single point]. For `COc1ccc(CNC(=O)Nc2ccccc2)cc1`, the Potency was inconclusive: 28.2 µM [inhibitor, single point]. For `CC1=CC(=O)c2ccccc2C1=O`, the Potency was active: 7.94 µM and active: 3.55 µM. In the case of `CCCCCOC(=O)c1[nH]c2c(c1C)C(=O)CC(c1ccco1)C2` (stereo unspecified), the Potency is reported as active: 79.4 µM. For `COc1cccc(CNc2ccc(N3CCC(C)CC3)cc2)c1OC`, the Potency was inconclusive: 70.8 µM [inhibitor, partial curve, poor fit]. For `CN(CCCOc1ccccc1Br)Cc1ccccc1`, the max response, negative = inhibition was inactive: -10.4%. For `COc1ccc(/C=C/C(=O)N(CC(C)C)CC(C)C)cc1Br`, the max response, negative = inhibition was inactive: -9.61%. In the case of `COCCOC(=O)c1c(C)nc(SCC(=O)Nc2ccc(OC)cc2)c(C#N)c1-c1ccco1`, the max response, negative = inhibition is reported as inactive: -11.6%. With `CCOc1ccccc1OCCC(=O)OCC(=O)c1ccc[nH]1` the Potency was inconclusive: 25.1 µM [inhibitor, partial curve, poor fit]. For `Cc1ccccc1OCC(=O)Nc1ccc2c(c1)OCCO2`, the Potency was inconclusive: 100 µM [inhibitor, partial curve, poor fit].
